Assay results taken from the supplement of paper PMC6411743.
± gives the standard deviation of the averaged measurements. Some of the results follow.

Sequences of proteins named here, by UniProt entry; tags and fusion partners are left off. A change or cut given only in a name is not applied to a line headed by its entry.
UniProt Q9NP80: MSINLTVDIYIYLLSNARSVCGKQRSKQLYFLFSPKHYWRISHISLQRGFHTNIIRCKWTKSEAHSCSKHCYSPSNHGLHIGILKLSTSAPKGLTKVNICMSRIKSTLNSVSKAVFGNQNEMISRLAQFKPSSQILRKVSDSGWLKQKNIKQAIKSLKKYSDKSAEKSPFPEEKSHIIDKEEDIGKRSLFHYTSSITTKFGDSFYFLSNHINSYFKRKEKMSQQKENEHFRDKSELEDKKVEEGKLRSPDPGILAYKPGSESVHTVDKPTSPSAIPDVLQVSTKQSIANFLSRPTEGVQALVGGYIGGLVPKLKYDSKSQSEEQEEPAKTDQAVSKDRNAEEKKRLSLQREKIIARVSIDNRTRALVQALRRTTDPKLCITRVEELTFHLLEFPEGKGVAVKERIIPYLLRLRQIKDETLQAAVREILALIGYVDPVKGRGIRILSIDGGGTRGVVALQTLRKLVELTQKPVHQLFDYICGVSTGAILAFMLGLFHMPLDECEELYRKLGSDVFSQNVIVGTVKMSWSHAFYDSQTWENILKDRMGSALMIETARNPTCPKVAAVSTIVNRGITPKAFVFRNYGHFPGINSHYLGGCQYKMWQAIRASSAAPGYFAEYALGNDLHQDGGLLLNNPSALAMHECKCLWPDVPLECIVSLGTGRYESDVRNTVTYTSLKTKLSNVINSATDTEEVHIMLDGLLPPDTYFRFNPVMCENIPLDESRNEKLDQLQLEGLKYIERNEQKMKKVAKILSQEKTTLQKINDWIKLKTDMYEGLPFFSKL
UniProt O43847: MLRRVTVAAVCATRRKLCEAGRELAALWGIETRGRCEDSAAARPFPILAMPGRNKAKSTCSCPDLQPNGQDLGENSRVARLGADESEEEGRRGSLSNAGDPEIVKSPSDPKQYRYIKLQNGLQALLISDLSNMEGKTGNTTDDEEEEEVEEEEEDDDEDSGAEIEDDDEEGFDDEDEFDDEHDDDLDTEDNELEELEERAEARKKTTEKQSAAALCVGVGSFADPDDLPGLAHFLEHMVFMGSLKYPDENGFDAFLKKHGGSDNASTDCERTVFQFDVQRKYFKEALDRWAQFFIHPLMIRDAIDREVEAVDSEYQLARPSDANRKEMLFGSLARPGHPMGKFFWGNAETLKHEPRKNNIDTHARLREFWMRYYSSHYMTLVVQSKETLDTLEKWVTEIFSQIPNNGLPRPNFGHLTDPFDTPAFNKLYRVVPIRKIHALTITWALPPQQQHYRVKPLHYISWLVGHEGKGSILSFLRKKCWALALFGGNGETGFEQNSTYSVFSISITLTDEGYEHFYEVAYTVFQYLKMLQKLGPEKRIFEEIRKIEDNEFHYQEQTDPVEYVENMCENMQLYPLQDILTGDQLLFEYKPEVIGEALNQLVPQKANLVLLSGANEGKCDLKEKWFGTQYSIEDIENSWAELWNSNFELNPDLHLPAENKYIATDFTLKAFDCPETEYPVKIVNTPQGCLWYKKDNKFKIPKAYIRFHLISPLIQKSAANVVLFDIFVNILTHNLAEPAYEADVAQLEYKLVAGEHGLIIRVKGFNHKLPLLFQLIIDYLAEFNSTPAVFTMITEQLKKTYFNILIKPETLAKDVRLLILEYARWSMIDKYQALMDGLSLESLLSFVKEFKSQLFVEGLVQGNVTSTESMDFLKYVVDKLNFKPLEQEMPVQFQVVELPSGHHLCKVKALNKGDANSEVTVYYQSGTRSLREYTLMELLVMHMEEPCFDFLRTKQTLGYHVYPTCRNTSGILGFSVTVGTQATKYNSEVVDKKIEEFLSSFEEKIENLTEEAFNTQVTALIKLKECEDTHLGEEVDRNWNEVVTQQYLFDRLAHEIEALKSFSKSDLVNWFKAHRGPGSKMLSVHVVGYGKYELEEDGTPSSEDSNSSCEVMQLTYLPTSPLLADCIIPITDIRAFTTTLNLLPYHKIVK
UniProt Q8WUA7: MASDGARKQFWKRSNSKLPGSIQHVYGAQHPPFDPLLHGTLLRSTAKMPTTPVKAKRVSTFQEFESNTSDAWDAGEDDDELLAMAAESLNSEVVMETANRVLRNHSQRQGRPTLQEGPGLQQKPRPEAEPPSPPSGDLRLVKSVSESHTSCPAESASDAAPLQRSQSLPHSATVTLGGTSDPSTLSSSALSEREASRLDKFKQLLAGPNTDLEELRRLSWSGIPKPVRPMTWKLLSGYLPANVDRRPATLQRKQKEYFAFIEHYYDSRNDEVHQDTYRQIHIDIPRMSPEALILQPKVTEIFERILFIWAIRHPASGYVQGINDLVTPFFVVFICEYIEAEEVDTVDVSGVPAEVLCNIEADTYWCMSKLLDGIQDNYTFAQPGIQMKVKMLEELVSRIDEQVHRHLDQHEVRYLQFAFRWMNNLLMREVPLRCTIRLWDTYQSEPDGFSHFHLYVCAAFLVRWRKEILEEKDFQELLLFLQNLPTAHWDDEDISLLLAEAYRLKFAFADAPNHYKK
UniProt Q9Y4K4: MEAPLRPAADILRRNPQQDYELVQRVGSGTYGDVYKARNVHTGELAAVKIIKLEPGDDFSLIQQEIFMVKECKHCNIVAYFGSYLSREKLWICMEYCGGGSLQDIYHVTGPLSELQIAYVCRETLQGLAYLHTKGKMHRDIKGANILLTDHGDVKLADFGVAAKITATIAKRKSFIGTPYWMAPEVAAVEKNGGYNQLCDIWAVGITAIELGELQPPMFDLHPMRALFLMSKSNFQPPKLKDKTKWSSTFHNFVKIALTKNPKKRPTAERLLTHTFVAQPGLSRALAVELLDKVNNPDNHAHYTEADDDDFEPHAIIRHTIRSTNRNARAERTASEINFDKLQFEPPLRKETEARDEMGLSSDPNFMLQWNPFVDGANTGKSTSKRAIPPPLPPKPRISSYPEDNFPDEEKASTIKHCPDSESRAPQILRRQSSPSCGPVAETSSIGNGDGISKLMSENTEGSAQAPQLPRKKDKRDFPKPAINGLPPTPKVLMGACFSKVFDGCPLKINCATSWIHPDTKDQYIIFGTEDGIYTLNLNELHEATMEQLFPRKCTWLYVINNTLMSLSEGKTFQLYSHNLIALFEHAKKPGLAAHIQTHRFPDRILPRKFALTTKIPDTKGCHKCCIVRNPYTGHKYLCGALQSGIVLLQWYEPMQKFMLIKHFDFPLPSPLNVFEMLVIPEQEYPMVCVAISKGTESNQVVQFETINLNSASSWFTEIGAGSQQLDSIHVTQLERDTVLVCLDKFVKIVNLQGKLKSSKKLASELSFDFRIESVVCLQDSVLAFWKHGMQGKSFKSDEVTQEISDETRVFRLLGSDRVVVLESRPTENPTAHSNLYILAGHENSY
UniProt A1L020: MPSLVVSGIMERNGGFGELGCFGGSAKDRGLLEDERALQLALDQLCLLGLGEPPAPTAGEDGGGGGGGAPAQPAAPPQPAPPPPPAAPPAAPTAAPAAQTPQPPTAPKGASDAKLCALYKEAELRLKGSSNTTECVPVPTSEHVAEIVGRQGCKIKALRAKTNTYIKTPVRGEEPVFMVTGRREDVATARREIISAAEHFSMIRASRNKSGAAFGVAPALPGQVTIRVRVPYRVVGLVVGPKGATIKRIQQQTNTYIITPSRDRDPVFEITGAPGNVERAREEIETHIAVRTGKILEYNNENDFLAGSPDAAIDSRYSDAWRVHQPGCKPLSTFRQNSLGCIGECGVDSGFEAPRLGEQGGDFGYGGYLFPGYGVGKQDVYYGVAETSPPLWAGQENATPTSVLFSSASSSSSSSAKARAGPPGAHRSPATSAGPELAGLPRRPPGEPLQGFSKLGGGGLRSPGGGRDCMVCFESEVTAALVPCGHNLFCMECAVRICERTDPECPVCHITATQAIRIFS

Compound: Nc1nc2c(ncn2[C@@H]2O[C@H](COP(=O)(O)OP(=O)(O)OP(=O)(O)O)[C@@H](O)[C@H]2O)c(=O)[nH]1 [guanosine triphosphate]
Assay: NP40-soluble protein abundance relative to vehicle (solubility fold change) (ratio); higher = more soluble protein in presence of GTP
Procedure, shortened: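 Values are fold changes against the detergent-processed vehicle, based on vsn-normalised intensities. Jurkat crude lysate was treated at eight concentrations from 0.1 to 10 mM (10 min at room temperature, then 3 min at 37 °C), solubilised with 0.8% NP40 and benzonase, ultracentrifuged and analysed by TMT-labelled LC-MS/MS over three independent experiments.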

Target	NP40-soluble protein abundance (concentration: 0.1mM)	NP40-soluble protein abundance (concentration: 0.5mM)	NP40-soluble protein abundance (concentration: 1mM)	NP40-soluble protein abundance (concentration: 2mM)	NP40-soluble protein abundance (concentration: 4mM)	NP40-soluble protein abundance (concentration: 6mM)	NP40-soluble protein abundance (concentration: 8mM)	NP40-soluble protein abundance (concentration: 10mM)
A0A0C4DG51|Q9NP80 and related entries (UniProt Q9NP80)	1.08 ± 0.074	1.03 ± 0.12	0.871 ± 0.034	0.897 ± 0.065	0.915 ± 0.094	0.867 ± 0.079	0.833 ± 0.055	0.898 ± 0.15
A0A140T9B7|P01889 and related entries (UniProt P30493+P30685+Q04826+D0EV57+P01889+P30460+Q29865+Q6DU44+Q8MH48+P10321+P30486+P30508+Q29718+Q29836+P04440+P04439+Q5SRN5+O19617+Q29963+Q9TNN7)	0.979 ± 0.083	0.96 ± 0.085	0.946 ± 0.068	0.914 ± 0.085	0.898 ± 0.07	0.903 ± 0.081	0.912 ± 0.061	0.893 ± 0.075
A0A087WYK8|B1AKJ5 and related entries (UniProt O43847)	0.987 ± 0.052	1.03 ± 0.065	0.922 ± 0.039	0.936 ± 0.028	0.8965 ± 0.0066	0.911 ± 0.036	0.869 ± 0.021	0.849 ± 0.029
A0A0A0MRY0|Q8WUA7 and related entries (UniProt Q8WUA7)	1.11 ± 0.024	1.05 ± 0.042	0.978 ± 0.026	1.01 ± 0.039	0.969 ± 0.12	0.94 ± 0.016	0.9628 ± 0.0058	0.884 ± 0.065
A0A0A0MQR1|Q9Y4K4 (UniProt Q9Y4K4)	0.942 ± 0.021	0.985 ± 0.031	0.887 ± 0.03	0.9 ± 0.017	0.895 ± 0.026	0.887 ± 0.06	0.86 ± 0.044	0.879 ± 0.055
MEX3A (UniProt A1L020)	1.1 ± 0.13	1.08 ± 0.016	1.23 ± 0.36	1.23 ± 0.021	1.11 ± 0.17	1.09 ± 0.081	1.04 ± 0.1	1.06 ± 0.099
